Results as given in publication PMC12794514.

Chains of the proteins cited; added tags and fusions are not shown. Lines headed by an entry give the natural chain unless they say otherwise; changes in a name come on top.
UniProt Q8WTX9: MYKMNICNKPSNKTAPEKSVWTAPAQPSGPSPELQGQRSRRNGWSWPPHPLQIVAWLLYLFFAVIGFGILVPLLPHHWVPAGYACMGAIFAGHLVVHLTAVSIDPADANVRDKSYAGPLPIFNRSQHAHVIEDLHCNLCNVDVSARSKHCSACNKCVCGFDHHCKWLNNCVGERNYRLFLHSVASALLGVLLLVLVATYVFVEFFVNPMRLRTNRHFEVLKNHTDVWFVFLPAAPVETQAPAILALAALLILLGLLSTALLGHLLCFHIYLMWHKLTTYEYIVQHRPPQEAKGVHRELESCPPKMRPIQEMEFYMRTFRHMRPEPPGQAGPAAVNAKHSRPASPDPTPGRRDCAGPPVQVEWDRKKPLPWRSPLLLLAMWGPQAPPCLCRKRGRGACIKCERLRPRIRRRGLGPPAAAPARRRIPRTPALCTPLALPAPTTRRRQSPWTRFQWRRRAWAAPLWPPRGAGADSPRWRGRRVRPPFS
UniProt Q9Y397: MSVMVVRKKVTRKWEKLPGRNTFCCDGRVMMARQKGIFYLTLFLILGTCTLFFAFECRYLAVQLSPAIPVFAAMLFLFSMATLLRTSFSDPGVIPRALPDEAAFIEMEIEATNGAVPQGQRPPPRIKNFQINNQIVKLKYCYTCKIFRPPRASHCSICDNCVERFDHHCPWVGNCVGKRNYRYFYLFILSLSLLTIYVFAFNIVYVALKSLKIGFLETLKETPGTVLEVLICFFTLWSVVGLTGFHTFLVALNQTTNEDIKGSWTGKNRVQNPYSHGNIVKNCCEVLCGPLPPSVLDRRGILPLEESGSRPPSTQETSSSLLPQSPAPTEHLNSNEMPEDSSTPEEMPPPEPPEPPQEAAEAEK

T1: MTDH as used in the reciprocal co-immunoprecipitations of Supplemental Fig. S4G-J (human) (UniProt Q86UE4)
T1 sequence: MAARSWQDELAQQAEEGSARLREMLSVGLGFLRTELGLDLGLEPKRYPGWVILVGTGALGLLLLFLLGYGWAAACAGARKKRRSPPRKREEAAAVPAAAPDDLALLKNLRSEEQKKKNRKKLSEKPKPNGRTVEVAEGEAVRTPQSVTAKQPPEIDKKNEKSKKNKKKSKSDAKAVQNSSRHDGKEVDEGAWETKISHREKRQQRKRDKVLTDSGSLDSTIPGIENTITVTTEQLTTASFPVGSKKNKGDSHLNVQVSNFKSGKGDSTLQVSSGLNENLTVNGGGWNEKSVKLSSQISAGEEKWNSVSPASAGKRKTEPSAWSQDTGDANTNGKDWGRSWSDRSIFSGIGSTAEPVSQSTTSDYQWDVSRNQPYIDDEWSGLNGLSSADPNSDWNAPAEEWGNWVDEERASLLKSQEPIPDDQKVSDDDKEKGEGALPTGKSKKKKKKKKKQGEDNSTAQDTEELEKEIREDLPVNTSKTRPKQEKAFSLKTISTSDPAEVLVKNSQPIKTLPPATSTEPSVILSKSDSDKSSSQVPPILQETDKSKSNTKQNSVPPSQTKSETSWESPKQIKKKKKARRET

B1: MTDH as used in the reciprocal co-immunoprecipitations of Supplemental Fig. S4G-J (protein, UniProt Q86UE4 1-582)
chain: T1 sequence

How the values were obtained:
[1] = biological target: T1, MTDH as used in the reciprocal co-immunoprecipitations of Supplemental Fig. S4G-J (human); assay: co-IP; Supplemental Fig. S4H, J: reciprocal, MTDH immunoprecipitated, ZDHHC or ZDHHS detected; NETN buffer, anti-Flag affinity gel or anti-HA magnetic beads, 4°C overnight
[2] = biological target: SF-tagged ZDHHS1 (catalytically inactive mutant of ZDHHC1) (UniProt Q8WTX9); assay: co-IP; Supplemental Fig. S4G, I: ZDHHC or ZDHHS immunoprecipitated, MTDH detected; NETN buffer, anti-Flag affinity gel or anti-HA magnetic beads, 4°C overnight
[3] = biological target: SF-tagged ZDHHS9 (catalytically inactive mutant of ZDHHC9) (UniProt Q9Y397); assay: as above

Row | Molecule | binding [1] | binding [2] | binding [3]
1 | SF-tagged ZDHHS1 (catalytically inactive mutant of ZDHHC1) (from UniProt Q8WTX9) (enzyme) | binds |  | 
2 | B1 |  | binds | binds

Results are given in words; binding and its absence hold for the method and conditions named. In cells and extracts the contact can be indirect. Binding can be weak; no strength is given.
